The list is a part of this screen's results and no random one: it is rich in T/C values a quarter to a half above the control, in often repeated tests (any T/C) and in doses without a T/C. Other doses and runs of a compound stand elsewhere. T/C is the treated group as % of the vehicle group. Some entries give survivors of the animals treated and no T/C: the source files T/C as zero there, which appears to mark a toxic dose or a test without result, not a measured value. Some doses without a T/C left all or most animals alive at the check, yet need not have been tolerated: survival well below the control is almost never listed, so the zero probably covers shortened survival too. Survivors were counted at the toxicity check, usually on the fifth day, unless a day is given; later deaths do not show. Schedules are NCI's codes, read here as Q, the interval in days (D) or hours (H), X, the number of doses. Some entries were tested several times; the values are given in rising order. Some schedule codes hold Z or #, which are not explained here. Where survival is the endpoint, this PubChem deposit counts one and a half times the control or more as active, and values a quarter to a half above the control carry no call in these data; other NCI protocols may use other cut-offs. Some T/C values carry the count of animals alive at the toxicity check (mostly the fifth day); without a count, all were alive then.
Tested on: L1210 leukemia ip in BDF1 mice, survival T/C
Assay: NCI In Vivo Anticancer Drug Screen. Data for tumor model L1210 Leukemia (intraperitoneal) in B6D2F1 (BDF1) mice
Settings: T/C endpoint: mean survival time, higher T/C = longer survival
[1] = dose: 200.0 mg/kg/injection, schedule: Q04DX003 (ip), vehicle: Klucel (hydroxypropylcellulose) (HPC)
[2] = dose: 400.0 mg/kg/injection, schedule: Q04DX003 (ip), vehicle: Klucel (hydroxypropylcellulose) (HPC)
[3] = dose: 200.0 mg/kg/injection, schedule: Q04DX003 (ip), vehicle: saline with Tween-80
[4] = dose: 200.0 mg/kg/injection, schedule: Q01DX001 (ip), vehicle: saline
[5] = dose: 400.0 mg/kg/injection, schedule: Q01DX001 (ip), vehicle: saline
[6] = dose: 75.0 mg/kg/injection, schedule: Q01DX001 (ip), vehicle: saline
[7] = dose: 150.0 mg/kg/injection, schedule: Q01DX001 (ip), vehicle: saline
[8] = dose: 300.0 mg/kg/injection, schedule: Q01DX001 (ip), vehicle: saline
[9] = dose: 400.0 mg/kg/injection, schedule: Q01DX001 (ip), vehicle: carboxymethylcellulose (CMC)
[10] = dose: 300.0 mg/kg/injection, schedule: Q01DX009 (ip), vehicle: saline with Tween-80

NS(=O)(=O)c1c([N+](=O)[O-])ncn1C1OC(COC(=O)c2ccccc2)C(OC(=O)c2ccccc2)C1OC(=O)c1ccccc1 (centres undefined) was tested, and the T/C (dose: 50.0 mg/kg/injection, schedule: Q01DX009 (ip), vehicle: saline) was 134 % of control [5 of 6 alive], the survivor count (dose: 100.0 mg/kg/injection, schedule: Q01DX009 (ip), vehicle: saline) was 3 of 6 and the survivor count (dose: 200.0 mg/kg/injection, schedule: Q01DX009 (ip), vehicle: saline) was 0 of 6.

In the case of C[N+]1(C)CCOC(O)(c2ccc(-c3ccccc3)cc2)C1 (centres undefined), the survivor count (dose: 25.0 mg/kg/injection, schedule: Q04DX002 (ip), vehicle: saline) is reported as 0 of 3, the survivor count (dose: 50.0 mg/kg/injection, schedule: Q04DX002 (ip), vehicle: saline) is reported as 0 of 3 and the survivor count (dose: 100.0 mg/kg/injection, schedule: Q04DX002 (ip), vehicle: saline) is reported as 0 of 3.

In the case of CC1OC1C(=O)Sc1ccccc1 (centres undefined), the survivor count [1] is reported as 4 of 6 and the survivor count [2] is reported as 0 of 6.

N=C(N)C(N)=NCC(Br)CBr (centres undefined) was tested, and the survivor count (dose: 400.0 mg/kg/injection, schedule: Q04DX002 (ip), vehicle: saline) was 1 of 3.

With O=C(Cn1ccccc1=O)c1ccccc1 the survivor count [3] was 0 of 6.

In the case of CC1(C)N=C(N)N=C(N)N1c1cccc(CCCc2ccccc2)c1, the survivor count (dose: 50.0 mg/kg/injection, schedule: Q01DX001 (ip), vehicle: saline) is reported as 1 of 3, the survivor count (dose: 100.0 mg/kg/injection, schedule: Q01DX001 (ip), vehicle: saline) is reported as 0 of 3 and 0 of 6 and the survivor count [4] is reported as 0 of 6. For the same compound, the survivor count [5] was 0 of 6.

With Cn1c(NCC[N+](C)(C)C)nc2ncncc21 the survivor count [6] was 1 of 6, the survivor count [7] was 0 of 6 and the survivor count [8] was 0 of 6.

For O=C1C=C/C(=N/S(=O)(=O)c2ccccc2)c2ccccc21, the survivor count (dose: 25.0 mg/kg/injection, schedule: Q01DX009 (ip), vehicle: DMSO) was 6 of 6, the survivor count (dose: 50.0 mg/kg/injection, schedule: Q01DX009 (ip), vehicle: DMSO) was 6 of 6 and the survivor count (dose: 100.0 mg/kg/injection, schedule: Q01DX009 (ip), vehicle: DMSO) was 1 of 6. For the same compound, the survivor count (dose: 200.0 mg/kg/injection, schedule: Q04DX003 (ip), vehicle: DMSO) was 1 of 6 and the survivor count (dose: 400.0 mg/kg/injection, schedule: Q04DX003 (ip), vehicle: DMSO) was 0 of 6.

CCCc1cc(=O)c2ccccc2n1COC(C)=O was tested, and the survivor count [9] was 2 of 4.

With CC1CCCN(C(=S)[S-])C1.CC1CCCN(C(=S)[S-])C1.[Zn] (centres undefined) the survivor count (dose: 2.5 mg/kg/injection, schedule: Q04DX003 (ip), vehicle: saline) was 6 of 6, the survivor count (dose: 5.0 mg/kg/injection, schedule: Q01DX009 (ip), vehicle: saline) was 4 of 6 and the survivor count (dose: 5.0 mg/kg/injection, schedule: Q04DX003 (ip), vehicle: saline) was 6 of 6. The survivor count (dose: 20.0 mg/kg/injection, schedule: Q01DX001 (ip), vehicle: saline) was 5 of 6, the survivor count (dose: 40.0 mg/kg/injection, schedule: Q01DX001 (ip), vehicle: saline) was 0 of 6 and the survivor count (dose: 75.0 mg/kg/injection, schedule: Q01DX001 (ip), vehicle: acetone) was 0 of 6. For the same compound, the survivor count (dose: 150.0 mg/kg/injection, schedule: Q01DX001 (ip), vehicle: acetone) was 1 of 6 and the survivor count (dose: 300.0 mg/kg/injection, schedule: Q01DX001 (ip), vehicle: acetone) was 0 of 6.

For O=C1C=Cc2cccc3cccc1c23, the survivor count [2] was 1 of 6.

NC(N)=N/N=C/c1cccc(F)c1 was tested, and the survivor count (dose: 60.0 mg/kg/injection, schedule: Q01DX Z (ip), vehicle: saline) was 0 of 6, the survivor count (dose: 60.0 mg/kg/injection, schedule: Q01DX Z (oral), vehicle: saline) was 2 of 6 and the survivor count (dose: 120.0 mg/kg/injection, schedule: Q01DX Z (ip), vehicle: saline) was 0 of 6. The survivor count (dose: 120.0 mg/kg/injection, schedule: Q01DX Z (oral), vehicle: saline) was 0 of 6.

C[N+](C)(C)CCCCCCCCCC[N+](C)(C)CCCCCCCCCC[N+](C)(C)CCCCCCCCCC[N+](C)(C)C was tested, and the survivor count (dose: 100.0 mg/kg/injection, schedule: Q04DX003 (ip), vehicle: Klucel (hydroxypropylcellulose) (HPC)) was 0 of 6, the survivor count [1] was 0 of 6 and the survivor count [2] was 0 of 6.

In the case of Nc1nc(N)nc(CCCCCCc2nc(N)nc(N)n2)n1, the survivor count [9] is reported as 0 of 4.

In the case of N#Cc1ccc(S(=O)(=O)Cl)cc1, the survivor count [1] is reported as 4 of 6 and the survivor count [2] is reported as 0 of 6.

OC(c1cc(Nc2ccc(Cl)cc2)nc2ccccc12)C1CCCCN1 (centres undefined) was tested, and the survivor count [2] was 4 of 6.

For O=C(O)c1cccc(Cl)c1.[Ni], the survivor count (dose: 100.0 mg/kg/injection, schedule: Q04DX002 (ip), vehicle: Klucel (hydroxypropylcellulose) (HPC)) was 0 of 3, the survivor count (dose: 200.0 mg/kg/injection, schedule: Q04DX002 (ip), vehicle: Klucel (hydroxypropylcellulose) (HPC)) was 0 of 3 and the survivor count (dose: 400.0 mg/kg/injection, schedule: Q04DX002 (ip), vehicle: Klucel (hydroxypropylcellulose) (HPC)) was 0 of 3.

C#CC(=O)C(CC)CCCC (centres undefined) was tested, and the survivor count (dose: 25.0 mg/kg/injection, schedule: Q01DX009 (ip), vehicle: saline with Tween-80) was 3 of 6, the survivor count (dose: 75.0 mg/kg/injection, schedule: Q01DX009 (ip), vehicle: saline with Tween-80) was 0 of 6 and the survivor count (dose: 150.0 mg/kg/injection, schedule: Q01DX009 (ip), vehicle: saline with Tween-80) was 0 of 6. For the same compound, the survivor count [10] was 0 of 6.

For CC(Cl)(CCl)C(=O)O (centres undefined), the survivor count [4] was 1 of 3.

In the case of CCCCCCCCCCCCCCCCCCNC(=S)Nc1ccc(S(=O)(=O)c2ccc(NC(=S)NCCCCCCCCCCCCCCCCCC)cc2)cc1, the survivor count [4] is reported as 4 of 4.

In the case of CC(C)(CO)NCc1ccc(Cl)cc1, the survivor count [5] is reported as 1 of 4.

With CC(C)(C)c1ccccc1OC(=O)Nc1ccc(F)cc1 the survivor count (dose: 200.0 mg/kg/injection, schedule: Q01DX009 (ip), vehicle: carboxymethylcellulose (CMC)) was 3 of 3 and the survivor count (dose: 400.0 mg/kg/injection, schedule: Q01DX009 (ip), vehicle: carboxymethylcellulose (CMC)) was 2 of 3.

N#CCCSCCc1ccccc1 was tested, and the survivor count [10] was 3 of 6.

CCOC(=O)N1CCc2nc3ccccc3cc21 was tested, and the survivor count (dose: 400.0 mg/kg/injection, schedule: Q01DX009 (ip), vehicle: other) was 6 of 6.

For Cc1nc2c(N)nn(C)c2nc1C, the survivor count (dose: 400.0 mg/kg/injection, schedule: Q01DX009 (ip), vehicle: saline with Tween-80) was 3 of 6.

With COc1cc(/C=N/[N+](C)(C)C)ccc1O the survivor count (dose: 50.0 mg/kg/injection, schedule: Q01DX009 (ip), vehicle: saline with Tween-80) was 4 of 6, the survivor count (dose: 100.0 mg/kg/injection, schedule: Q04DX003 (ip), vehicle: saline with Tween-80) was 0 of 6 and the survivor count [3] was 0 of 6. For the same compound, the survivor count (dose: 400.0 mg/kg/injection, schedule: Q04DX003 (ip), vehicle: saline with Tween-80) was 0 of 6.

With CC(CN(C)C)CN1c2ccccc2CCc2ccccc21 (centres undefined) the survivor count (dose: 70.0 mg/kg/injection, schedule: Q01DX009 (ip), vehicle: saline) was 1 of 6, the survivor count (dose: 140.0 mg/kg/injection, schedule: Q04DX003 (ip), vehicle: saline) was 1 of 4 and the survivor count (dose: 280.0 mg/kg/injection, schedule: Q04DX003 (ip), vehicle: saline) was 0 of 4.

In the case of CCCCCCCCCCCCCCC[n+]1cccc(C#N)c1, the survivor count (dose: 10.0 mg/kg/injection, schedule: Q01DX001 (ip), vehicle: saline) is reported as 6 of 6, the survivor count [6] is reported as 1 of 6 and the survivor count [7] is reported as 0 of 6. The survivor count [8] was 0 of 6.
